Laboratory results: patent US9624209B2, “Substituted phenylureas and phenylamides as vanilloid receptor ligands” (Gruenenthal GmbH, priority 2009, dated 2017)
For at least one compound, name, drawing or mass did not settle the structure.

Amino acid sequences for entries named in this document (tags omitted).
UniProt Q8NER1, whole entry: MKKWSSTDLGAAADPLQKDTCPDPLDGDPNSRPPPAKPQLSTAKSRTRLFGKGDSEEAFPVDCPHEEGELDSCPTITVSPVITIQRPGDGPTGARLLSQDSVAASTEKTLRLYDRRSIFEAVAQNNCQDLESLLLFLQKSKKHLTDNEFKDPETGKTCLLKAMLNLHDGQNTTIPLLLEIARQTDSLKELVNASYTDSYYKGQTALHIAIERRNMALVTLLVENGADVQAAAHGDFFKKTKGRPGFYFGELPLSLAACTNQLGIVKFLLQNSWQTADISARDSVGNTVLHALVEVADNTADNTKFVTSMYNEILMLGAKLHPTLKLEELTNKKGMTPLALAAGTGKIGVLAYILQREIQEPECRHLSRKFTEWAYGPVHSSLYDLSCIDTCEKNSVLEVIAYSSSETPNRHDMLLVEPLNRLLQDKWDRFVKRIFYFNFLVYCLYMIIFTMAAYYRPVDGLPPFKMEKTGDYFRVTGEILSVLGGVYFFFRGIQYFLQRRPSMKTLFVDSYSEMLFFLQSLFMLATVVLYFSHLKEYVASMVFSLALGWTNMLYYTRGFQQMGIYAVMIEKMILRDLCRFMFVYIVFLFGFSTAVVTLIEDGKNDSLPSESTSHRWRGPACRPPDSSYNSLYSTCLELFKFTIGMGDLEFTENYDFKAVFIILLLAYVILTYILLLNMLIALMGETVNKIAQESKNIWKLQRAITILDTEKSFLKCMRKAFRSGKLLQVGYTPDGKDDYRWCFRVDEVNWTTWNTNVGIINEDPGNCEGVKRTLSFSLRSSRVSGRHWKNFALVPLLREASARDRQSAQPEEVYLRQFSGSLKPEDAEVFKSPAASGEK

Target: T1, vanilloid receptor 1 (VR1/TRPV1 receptor) (Homo sapiens, UniProt Q8NER1)
T1 construct: expressed in transfected cells; host or cells: CHO K1 cells (ECACC), stably transfected
Assay: VR1/TRPV1 receptor affinity, capsaicin stimulus (human)
Type: cell-based, human being
Set-up: key: AG=agonist; pAG=partial agonist; NE=no effect
Settings: Tables 8-12

| Structure (SMILES) | (f) Ki (human being) [nM] Cap: result in words |
| --- | --- |
| CC(C(=O)NCc1cc(C(C)(C)C)nn1-c1cccc(Cl)c1)c1ccc(CN)c(F)c1 (centres unmarked) [Example B47, 2-[4-(Aminomethyl)-3-fluoro-phenyl]-N-[[5-tert-butyl-2-(3-chlorophenyl)-2H-pyrazol-3-yl]-methyl]-propionamide] | AG |
| CC(C(=O)NCc1cc(C(C)(C)C)nn1-c1cccc(Cl)c1)c1ccc(CO)c(Cl)c1 (centres unmarked) [Example A51, N-[[5-tert-Butyl-2-(3-chlorophenyl)-2H-pyrazol-3-yl]-methyl]-2-[3-chloro-4-(hydroxymethyl)-phenyl]-propionamide] | AG |
